Data taken from PubChem BioAssay AID590 (National Center for Advancing Translational Sciences (NCATS), 2007).
Where “and” joins values, the source holds several entries; their conditions need not be identical. Identical values can stand only once. The whole screen tested about 59,000 compounds, of which about 6,500 (11%) were called active. Inconclusive results, whose numbers are uncertain, are shown with a selection of clear calls. No stated cut-off is given here; in the data, active means max dye-equivalent concentration above about 10 nM; inconclusive means mostly about 1.1 nM to 9.6 nM; inactive means weaker than that.

assay: qHTS Assay for Spectroscopic Profiling in A350 Spectral Region; settings: Compound autofluorescence, 340/450 nm, Alexa 350 dye-equivalents; hits give high values

Row | Structure (SMILES) | max dye-equivalent concentration
1 | CCC(=O)Nc1ccc(-c2nn3c(C)nnc3s2)cc1 | inconclusive: 2.7e-09 M
2 | COC(=O)c1cccc(C(=O)Nc2cnc3ccccc3c2)n1 | inconclusive: 6.5e-09 M
3 | CCC(=O)N1CCN(c2ccccc2NC(=O)COc2cccc(C)c2)CC1 | inactive
4 | COc1ccc(CNC(=O)Cc2ccc(OC)c(S(=O)(=O)N3CCOCC3)c2)cc1 | inconclusive: 1.2e-09 M
5 | COc1ccccc1/C=c1\sc2nc(-c3ccncc3)nn2c1=O | inconclusive: 2.8e-09 M
6 | CC(C)(C)n1nnnc1C(c1cccs1)N(Cc1cccnc1)CC1CCCO1 (stereo not given) | inactive
7 | O=C(/C=C\C=C/c1ccc2c(c1)OCO2)N1CCCCC1 | active: 4.2e-08 M
8 | CN(C)c1ncc2nc(CCc3ccccc3)c(=O)n(C3CC3)c2n1 | inconclusive: 6.7e-09 M
9 | O=C(O)CSc1cc(-c2ccccc2)nc2ccccc12 | inactive
10 | Cc1nc2cnc(N3CCN(C)CC3)nc2n(C)c1=O | inconclusive: 3.8e-09 M
11 | CC1=C(C(=O)Nc2ccccn2)C(c2cccnc2)n2nnnc2N1 (stereo not given) | inconclusive: 4.1e-09 M
12 | c1ccc(OCc2nn3c(-c4ccccn4)nnc3s2)cc1 | inconclusive: 2.8e-09 M
13 | COc1cccc(-c2nn(-c3ccccc3)cc2CO)c1 | inactive
14 | COc1ccc(NS(=O)(=O)c2ccc3c(c2)CCC(=O)N3)c(OC)c1 | inconclusive: 3.9e-09 M
15 | O=C(C1CCN(C2CC(=O)N(c3ccc(F)cc3)C2=O)CC1)N1CCOCC1 (stereo not given) | inconclusive: 1.1e-09 M
16 | Cc1ccc(OCC(=O)Nc2ccc(-c3nc4ncccc4o3)cc2)c(C)c1 | active: 6e-08 M
17 | CN1C(=O)c2c(sc3c2CCCC3)NC1c1ccccc1O (stereo not given) | inconclusive: 1.4e-09 M
18 | CCOc1cc(-c2cc(-c3ccc(N)cc3)nc(N)c2C#N)ccc1O | inconclusive: 9.3e-09 M
19 | COc1cc(NC(=O)c2ccco2)c(OC)cc1NC(=O)CSc1nnc(-c2cccs2)n1C | active: 4.6e-08 M
20 | O=c1c(O)c(-c2ccc(O)c(O)c2)oc2cc(O)ccc12 | active: 5.1e-08 M and active: 5.9e-08 M
21 | CCN(CC)CCC[C@H](C)Nc1c2ccc(Cl)cc2nc2ccc(OC)cc12 | active: 2.6e-07 M and active: 2.5e-07 M
22 | COc1ccc(-c2nc(C(N)=O)c3[nH]c(=O)n(-c4cccc(Cl)c4)c3n2)cc1OC | inactive
23 | Cc1cc(C(=O)NCc2ccccc2)no1 | inactive

Row | Structure (SMILES) | max dye-equivalent concentration
24 | O=C(CSc1nnc(-c2ccc(O)cc2)n1Cc1ccco1)c1cccs1 | inconclusive: 1.1e-09 M
25 | CCCc1ccc(OCc2ccc(C(=O)OC)o2)c(OC)c1 | inconclusive: 3e-09 M
26 | OC(COc1ccc2c(c1)OCO2)CN1CCc2ccccc2C1 (stereo not given) | active: 1e-08 M
27 | COCCNC(=O)c1ccc2c(=O)n(CCOC)c(=O)[nH]c2c1 | active: 3.1e-08 M
28 | O=C(COc1ccc(-n2cnnn2)cc1)NC1CCCCC1 | inconclusive: 2.2e-09 M
29 | Nc1nc(N)c(CCCCc2ccccc2)c(N)n1 | inactive
30 | COC(=O)C1C(=O)N2CCCSC2=C(C#N)C1c1cccs1 (stereo not given) | inconclusive: 1.3e-09 M
31 | CCCn1c(C)cc(C(=O)COc2ncnc3sccc23)c1C | inconclusive: 1.5e-09 M
32 | CCc1nn2c(=O)cc(N3CCN(c4cc(C)nc5ccccc45)CC3)nc2s1 | inconclusive: 1.4e-09 M
33 | COCCn1c(=O)c(-c2cccs2)nc2cnc(OCc3ccccc3)nc21 | active: 6.7e-08 M
34 | CCOC(=O)n1c(=O)oc2cc(S(=O)(=O)N3CCOCC3)ccc21 | inconclusive: 2.8e-09 M
35 | CC(=O)Nc1ccc2nc(SCC(=O)O)sc2c1 | inconclusive: 6e-09 M
36 | COc1ccc(OC)c(-c2nnc(-c3ccc(C)o3)o2)c1 | active: 2.3e-07 M
37 | Cc1oc(C(=O)O)cc1COc1ccc2c(C)cc(=O)oc2c1 | active: 5.4e-08 M
38 | CCCc1ccc(OCCNC(=O)CC)cc1 | inconclusive: 1.7e-09 M
39 | Cc1ccc(NC(=O)c2oc3ccc(S(=O)(=O)N4CCOCC4)cc3c2C)cc1C | inconclusive: 8.5e-09 M
40 | Cc1csc(SCCn2c(N3CCCC3)nc3c2c(=O)[nH]c(=O)n3C)n1 | inconclusive: 1.3e-09 M
41 | Cc1cc(=O)[nH]c2ccccc12 | inconclusive: 3.6e-09 M
42 | CSc1ccc(Cl)c(C(=O)OCC(=O)N2CCOCC2)c1 | inconclusive: 4.8e-09 M
43 | Cc1c(OCc2nn[nH]n2)ccc2c(-c3ccccc3)cc(=O)oc12 | inconclusive: 8.6e-09 M
44 | COc1cc(/C=N/n2c(C)nnc2C)cc(OC)c1OC | inactive
45 | COc1ccc(CNc2ncnc3ccc(-c4ccccc4C#N)cc23)c(OC)c1 | inconclusive: 1.2e-09 M
46 | O=C(CCN1C(=O)C2CC=C(Cl)CC2C1=O)NCc1ccco1 (stereo not given) | inactive

Row | Structure (SMILES) | max dye-equivalent concentration
47 | OCCNc1nc(-c2ccccc2)c2ccccc2n1 | active: 9.3e-07 M
48 | CCOC(=O)N1CCN(CC(=O)c2c(C)[nH]c3ccccc23)CC1 | inconclusive: 1.4e-09 M
49 | Cc1c(C(=O)N2CCOCC2)sc2nc(-c3ccccc3)cn12 | inactive
50 | Cc1cccc(NC(=O)CSc2nnc(CSc3nc(C)cc(C)n3)n2Cc2ccco2)c1 | inactive
51 | Cc1ccc(/C=c2\sc3nc(-c4ccccc4Br)nn3c2=O)o1 | inconclusive: 1.4e-09 M
52 | CCC(=O)NCCc1cc2cc(C)c(C)cc2[nH]c1=O | inconclusive: 2.7e-09 M
53 | Cn1nc(C(C)(C)C)cc1C(=O)Nc1nc2c(s1)C(=O)CC(C)(C)C2 | inconclusive: 1e-08 M
54 | CCOc1ccc(-c2nnc(-c3ccncc3)o2)cc1 | inconclusive: 1.3e-09 M
55 | CC1CN(c2oc(-c3ccco3)nc2C#N)CC(C)O1 (stereo not given) | active: 1.1e-08 M
56 | Cn1c(=O)c2[nH]c(CCCCc3nc4c([nH]3)c(=O)n(C)c(=S)n4C)nc2n(C)c1=S | inactive
57 | CCSc1ccc2nnc(-c3ccc(F)cc3)n2n1 | inconclusive: 5.3e-09 M
58 | CC(C)COP(=O)(c1ccc(N(C)C)cc1)C(O)c1ccncc1 (stereo not given) | inconclusive: 1.7e-09 M
59 | CC(=O)c1cccc(NC(=O)Nc2ccc(C(=O)N3CCOCC3)cc2)c1 | inconclusive: 1.2e-09 M
60 | CCN1CSC(=S)N(Cc2ccc(OC)cc2)C1 | inconclusive: 6.1e-09 M
61 | CCCCOc1ccc(/C(O)=C2/C(=O)C(=O)N(CCN(C)C)C2c2ccc(O)c(OC)c2)cc1 (stereo not given) | inconclusive: 3.8e-09 M
62 | O=C(NCCCNC1CCCCC1)c1ccc(/C=N/O)nc1 | inactive
63 | COc1ccccc1-n1c(N)c(C(=O)NCC2CCCO2)c2nc3ccccc3nc21 (stereo not given) | active: 2.5e-06 M
64 | Cc1ccc(N2CCN(c3cc(C)nc4c5c(C)cc(C)nc5nn34)CC2)cc1 | active: 3.2e-08 M
65 | O=C(CCS(=O)(=O)c1ccc(Br)cc1)N1CCN(Cc2ccccc2)CC1 | inconclusive: 2.5e-09 M
66 | CCOC(=O)CSc1nc2cc(C)ccc2cc1C#N | inconclusive: 4.9e-09 M
67 | COc1ccccc1NC(=O)N1CCc2[nH]c3ccc(F)cc3c2C1 | active: 3.3e-07 M
68 | c1ccc(-n2nnnc2SCc2cn3ccccc3n2)cc1 | inconclusive: 2.1e-09 M
69 | O=c1o[nH]c(-c2ccccc2)c1C1=NCCCCC1 | active: 1.1e-05 M

Row | Structure (SMILES) | max dye-equivalent concentration
70 | CCn1c(SCC(=O)Nc2nccs2)nnc1-c1ccccc1 | inconclusive: 5.6e-09 M
71 | CS(=O)(=O)N1CCN(c2ccccc2NC(=O)Cc2ccc(Cl)cc2)CC1 | inactive
72 | CC1CC(=O)c2cnc(NCC3CCCO3)nc2C1 (stereo not given) | inactive
73 | COc1cc(OC)cc(-n2nc(C(=O)NCCCN3CCOCC3)c3ccccc3c2=O)c1 | inactive
74 | CCOC(=O)C1CCCN(Cc2ccc3c(c2)OCO3)C1 (stereo not given) | inconclusive: 7.2e-09 M
75 | Nn1c(SCC(=O)Nc2ccc(F)cc2)nnc1C1CCCCC1 | inconclusive: 7.6e-09 M
76 | COCCn1c(=O)c(C)nc2cnc(N3CCN(C)CC3)nc21 | active: 9.9e-08 M
77 | CC(C)c1ccc(O)c(O)c(=O)c1 (tested in a mixture with another compound) | inconclusive: 4.9e-09 M
78 | C=CCOc1ccc(C2c3c(oc4ccccc4c3=O)C(=O)N2CCCN2CCOCC2)cc1 (stereo not given) | inconclusive: 3e-09 M
79 | Cc1[nH]nc2c1C1(CCC3(CC1)OCCO3)C(C#N)=C(N)O2 | inconclusive: 1.3e-09 M
80 | CN(Cc1nc2ccccc2n1C)S(=O)(=O)c1ccc(F)cc1 | inconclusive: 1.1e-09 M
81 | Cc1cc(OCC(=O)O)c2cccc(C)c2n1 | inactive
82 | NC[C@@H]1O[C@@H](O[C@H]2[C@@H](O)[C@H](O[C@@H]3[C@H](O)[C@H](N)C[C@H](N)[C@H]3O[C@@H]3O[C@@H](CO)[C@H](O)[C@H](O)[C@@H]3N)O[C@H]2CO)[C@H](N)[C@H](O)[C@@H]1O | inactive
83 | Cc1ccc(NC(=O)CCSc2nnnn2-c2ccc3c(c2)OCO3)cc1C | inconclusive: 1.4e-09 M
84 | Nc1ccc(N=Nc2c(S(=O)(=O)O)cc3ccccc3c2S(=O)(=O)O)cc1 | inconclusive: 3.8e-09 M
85 | Cc1nc(N)sc1-c1nnc(SCC(=O)Nc2nccs2)n1C | inconclusive: 1.3e-09 M
86 | CCOC(=O)CNC(=O)CSc1nc2cccnc2n1C | inconclusive: 1.9e-09 M
87 | Cn1c(CCN2CCOCC2)nc2cc(NC(=O)COc3ccc(Cl)cc3)ccc21 | inactive
88 | COC(=O)c1sc2cnccc2c1N | active: 5.9e-06 M
89 | Cc1cc(-c2nc3c4c5c(sc4[nH]c(=O)n3n2)CCC5)c(C)o1 | inactive
90 | O=C(O)C1CCCN1S(=O)(=O)c1ccc2[nH]c(=O)c(=O)[nH]c2c1 (stereo not given) | inactive
